Assay results reported in publication PMC8748688.
Results are given in words; binding and its absence hold for the method and conditions named. In cells and extracts the contact can be indirect. Some binding calls cover weakened binding; strength is not graded here.

By UniProt entry, the sequences of proteins in these tests, tags left out.
UniProt P10415: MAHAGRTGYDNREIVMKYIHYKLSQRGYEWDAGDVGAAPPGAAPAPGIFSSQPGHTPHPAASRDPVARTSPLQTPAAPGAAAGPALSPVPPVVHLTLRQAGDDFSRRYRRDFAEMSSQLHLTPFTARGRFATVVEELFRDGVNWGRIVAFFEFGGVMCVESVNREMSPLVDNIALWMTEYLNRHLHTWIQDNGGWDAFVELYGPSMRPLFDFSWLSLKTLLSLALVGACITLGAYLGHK
UniProt Q14457: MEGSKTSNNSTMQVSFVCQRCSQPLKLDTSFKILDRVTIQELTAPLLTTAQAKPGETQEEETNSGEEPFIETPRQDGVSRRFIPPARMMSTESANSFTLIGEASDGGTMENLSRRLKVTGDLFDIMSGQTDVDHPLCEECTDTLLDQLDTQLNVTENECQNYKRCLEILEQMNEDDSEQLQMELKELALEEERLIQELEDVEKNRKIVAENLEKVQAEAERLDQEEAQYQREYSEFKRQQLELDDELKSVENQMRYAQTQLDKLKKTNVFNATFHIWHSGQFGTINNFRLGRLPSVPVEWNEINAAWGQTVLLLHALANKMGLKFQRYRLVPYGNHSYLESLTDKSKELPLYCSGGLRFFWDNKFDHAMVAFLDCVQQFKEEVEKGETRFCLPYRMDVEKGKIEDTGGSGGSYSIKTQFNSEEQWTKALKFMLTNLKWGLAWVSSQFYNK

Assays:
[1] = biological target: B-cell lymphoma-2 (Bcl-2) (human (endogenous in PC-3)) (UniProt P10415); experiment: co-IP; PC-3 cell lysate, IP with Beclin1 antibody or Bcl-2 antibody (5 ug antibody, 500 ug protein), protein A + G beads, Western blot; control cells, CEMIP-overexpressing cells, and CEMIP overexpression with PKCalpha knockdown
[2] = biological target: Beclin1 (human (endogenous in PC-3)) (UniProt Q14457); experiment: as above

binding [1]	binding [2]	Substance
binds	–	Beclin1 (from UniProt Q14457 1-450)
–	binds	B-cell lymphoma-2 (Bcl-2) (from UniProt P10415 1-239)
